No constants are given. Whether binding was seen depends on the method and setting. In cells and extracts the contact can be indirect. Some results given as binding are weak or reduced against the parent protein; the word gives no strength.
Experiments:
[1] = target: CENP-A (endogenous, soluble pre-assembly fraction) (human (endogenous in SW480)) (UniProt P49450); assay: co-IP; CENP-A IP (ACA serum) or mock IP from the soluble fraction (PBS, 0.5% NP-40) of SW480 cells treated 72 hours with control or HJURP siRNA; Western blot for the chaperones
[2] = target: GFP-CENP-A (UniProt P49450); assay: co-IP; IP of GFP-CENP-A or CENP-A-mCherry expressed in SW480 cells; Western blot for DAXX and HIRA
[3] = target: CENP-A-mCherry (UniProt P49450); assay: as above

Measured: binding

DAXX (endogenous) (from UniProt Q9UER7 1-740)
binds: [1] | [2] | [3]

From article PMC6203356
